Measurements reported in patent US7288256B1, “T cell epitopes of the major allergens from dermatophagoides (house dust mite)” (Merck Patent GmbH, priority 1991, dated 2007).
“Also recorded” adds a separate entry of the source. Part of at least one peptide drawing is inferred or uncertain, most often the ends. Some entries repeat one wording, which the source may state once for all of them. Residues, ends and D or L forms follow the SMILES beside them.

Experiments:
human IgE = assay: Direct binding ELISA of IgE to mite allergen proteins and peptides (Examples XIII, XV); settings: plasma from 19 mite-allergic patients and a pool of 18 additional patients; Example XV
Protocol: Corning assay plates (#25882-96) were coated with 5 μg/ml of each coating antigen listed in FIGS. 19, 20 and 21 at […] and incubated overnight at 4° C. The coating antigens were removed and the wells are blocked with 0.5% gelatin in PBS, 300 μl/well for 2 hours at room temperature. […] Louis, Mo.) and 100 μl/well a\was added and incubated overnight at 4° C. (plasma dilutions were tested in duplicate). The second antibody (biotinylated goat anti-Human IgE, 1:1000, Kirkegaard & Perry Laboratories Inc, Gaithersburg, Md.), was added at 100 μl/well for one hour at room temperature. This solution was removed and streptavidin-HRPO, 1:10000, (Southern Biotechnology Associates, Inc., Birmingham, Ala.) was then added at 100 μl/well for one hour at room temperature (all wells are washed three times with PBS-Tween between each incubation step). TMB Membrane Peroxidase Substrate system (Kirkegaard & Perry Laboratories) was freshly miced, and added at […]. The color was allowed to develop for 2-5 minutes. The reaction was stopped by the addition of […] of 1M phosphoric acid. Plates were read on a Microplate IL310 Autoreader (Biotech Instruments, Winooski, Vt.) with a 450 nm filter. The absorbance levels of duplicate wells were averaged. The order of coating antigens listed vertically in these figure legends corresponds in […] from left to right to the coating antigens listed for each histogram.

[1] = tested on: T cell lines primed with purified native Der p II; assay: T cell epitope studies with modified peptides, T cell lines primed with Der p II (Example XIV, FIGS. 32a-b); type: cell-based, human; settings: 21 patients
IgE = IgE reactivity or histamine release of candidate peptides (data not shown); settings: experiments to date
[2] = tested on: Der p II primed T cell lines; assay: Secondary T cell proliferation assay, T cell lines primed in vitro with Der p II (Examples VIII, X, XI, XII); settings: Der p II T-cell map and analogs of parent peptide DpII-22; data not shown
[3] = tested on: T cell lines primed with purified native Der p I; assay: T cell epitope studies with modified peptides, T cell lines primed with Der p I (Example XIV, FIGS. 31a-b); type: cell-based, human; settings: 18 patients

| SMILES | IgE binding in direct ELISA (human IgE) | T cell response to peptide [1] | IgE reactivity or histamine release (IgE) | T-cell reactivity (in words) [2] | T cell response to peptide [3] |
| --- | --- | --- | --- | --- | --- |
| CC(C)C[C@H](NC(=O)[C@H](CCC(=O)O)NC(=O)[C@H](CCCCN)NC(=O)[C@@H](N)CC(=O)O)C(=O)N[C@@H](CCC(=O)O)C(=O)N[C@@H](C)C(=O)N[C@H](C(=O)N[C@@H](Cc1ccccc1)C(=O)N[C@@H](CCC(=O)O)C(=O)N[C@@H](C)C(=O)N[C@@H](CC(N)=O)C(=O)N[C@@H](CCC(N)=O)C(=O)N[C@@H](CC(N)=O)C(=O)N[C@H](C(=O)N[C@@H](CCCCN)C(=O)N[C@H](C(=O)N[C@@H](C)C(=O)N[C@@H](CCCCN)C(=O)N[C@@H](C)C(=O)N[C@@H](CCC(=O)O)C(=O)O)[C@@H](C)O)[C@@H](C)O)C(C)C [DP II-22.14] (H-DKELEAVFEANQNTKTAKAE-OH; N-terminus and C-terminus assumed) | No plasma samples contained IgE | responded positively; also recorded: positive | negative | almost the same T-cell reactivity | – |
| CC(C)[C@H](NC(=O)CNC(=O)[C@H](CCC(=O)O)NC(=O)[C@H](CCC(=O)O)NC(=O)[C@@H](N)CC(=O)O)C(=O)N[C@H](C(=O)N[C@@H](CCC(N)=O)C(=O)N[C@@H](CCC(=O)O)C(=O)N[C@@H](CO)C(=O)N[C@@H](Cc1ccc(O)cc1)C(=O)N[C@@H](Cc1ccc(O)cc1)C(=O)N[C@@H](CCCNC(=N)N)C(=O)N[C@@H](Cc1ccc(O)cc1)C(=O)N[C@H](C(=O)N[C@@H](C)C(=O)N[C@@H](CCCNC(=N)N)C(=O)N[C@@H](CCC(=O)O)C(=O)N[C@@H](CCC(N)=O)C(=O)N[C@@H](CO)C(=O)N[C@@H](CS)C(=O)N[C@@H](CCCNC(=N)N)C(=O)N[C@@H](CCCNC(=N)N)C(=O)N1CCC[C@H]1C(=O)N[C@@H](CC(N)=O)C(=O)N[C@@H](C)C(=O)N[C@@H](CCC(=O)O)C(=O)O)C(C)C)C(C)C [DP I-23.31] (H-DEEGVVQESYYRYVAREQSCRRPNAE-OH; N-terminus and C-terminus assumed) | No plasma samples contained IgE | – | negative | – | responded positively; also recorded: positive |
